# Results reported in patent US11377496B2, “Targeting agent antibody conjugates and uses thereof” (The Scripps Research Institute, priority 2013, dated 2022).
# Amino acid sequences for entries named in this document (tags omitted).
# UniProt Q04609, whole entry: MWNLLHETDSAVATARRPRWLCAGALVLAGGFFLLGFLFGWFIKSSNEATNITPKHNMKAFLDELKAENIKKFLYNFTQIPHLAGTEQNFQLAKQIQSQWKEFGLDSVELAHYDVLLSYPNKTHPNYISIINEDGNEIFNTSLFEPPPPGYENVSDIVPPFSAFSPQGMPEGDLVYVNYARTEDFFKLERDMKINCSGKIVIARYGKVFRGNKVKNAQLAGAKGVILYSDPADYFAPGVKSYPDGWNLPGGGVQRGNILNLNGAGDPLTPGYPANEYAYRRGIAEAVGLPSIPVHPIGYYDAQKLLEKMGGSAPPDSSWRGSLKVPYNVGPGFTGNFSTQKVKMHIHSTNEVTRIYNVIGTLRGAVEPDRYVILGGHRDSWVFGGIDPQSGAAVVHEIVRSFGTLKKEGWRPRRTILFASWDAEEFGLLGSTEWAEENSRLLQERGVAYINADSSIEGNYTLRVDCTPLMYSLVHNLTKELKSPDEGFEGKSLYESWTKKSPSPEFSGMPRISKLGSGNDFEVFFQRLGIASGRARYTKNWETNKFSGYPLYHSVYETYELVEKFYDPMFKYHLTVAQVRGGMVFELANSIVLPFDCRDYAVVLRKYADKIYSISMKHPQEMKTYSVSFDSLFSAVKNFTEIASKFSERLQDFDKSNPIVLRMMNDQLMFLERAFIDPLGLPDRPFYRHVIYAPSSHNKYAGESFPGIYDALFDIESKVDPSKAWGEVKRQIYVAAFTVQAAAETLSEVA
# For part of its entries the source gives two or more results. This list holds those alone. There may be further records. Values given together differ for a reason that is not stated; they may come from other doses, times, organisms or constructs than stated.
# Molecular target: rhPSMA (Homo sapiens, UniProt Q04609)
# Experiment: PSMA inhibition assay
# Assay type: biochemical
# Conditions: Trials 1-3; substrate NAAG
smiles,measurement,value
"CC(=O)N[C@@H](CC(=O)O)C(=O)N[C@@H](CCC(=O)O)C(=O)O [NAAG, N-acetyl-aspartyl-glutamate]",Km,109 nM and 755 nM
